Experiment [1] deals with endogenously flag-HA tagged wild-type dSetDB1 (D. melanogaster) (UniProt Q32KD2). Nature of the experiment: affinity purification with mass spectrometry; ANTI-FLAG M2 affinity gel on the nuclear soluble fraction of 0-4 h embryos, 4 h at 4 °C, IP buffer (20 mM Tris-HCl pH 7.5, 150 mM KCl, 5 mM MgCl2, 10% glycerol, 0.05% NP-40, 0.1% Tween-20), eluted with flag peptide; enrichment over ctr embryos, three biological replicates.

Amino acid sequences for entries named in this document (tags omitted). A change or cut given only in a name is not applied to a line headed by its entry.
UniProt Q32KD2: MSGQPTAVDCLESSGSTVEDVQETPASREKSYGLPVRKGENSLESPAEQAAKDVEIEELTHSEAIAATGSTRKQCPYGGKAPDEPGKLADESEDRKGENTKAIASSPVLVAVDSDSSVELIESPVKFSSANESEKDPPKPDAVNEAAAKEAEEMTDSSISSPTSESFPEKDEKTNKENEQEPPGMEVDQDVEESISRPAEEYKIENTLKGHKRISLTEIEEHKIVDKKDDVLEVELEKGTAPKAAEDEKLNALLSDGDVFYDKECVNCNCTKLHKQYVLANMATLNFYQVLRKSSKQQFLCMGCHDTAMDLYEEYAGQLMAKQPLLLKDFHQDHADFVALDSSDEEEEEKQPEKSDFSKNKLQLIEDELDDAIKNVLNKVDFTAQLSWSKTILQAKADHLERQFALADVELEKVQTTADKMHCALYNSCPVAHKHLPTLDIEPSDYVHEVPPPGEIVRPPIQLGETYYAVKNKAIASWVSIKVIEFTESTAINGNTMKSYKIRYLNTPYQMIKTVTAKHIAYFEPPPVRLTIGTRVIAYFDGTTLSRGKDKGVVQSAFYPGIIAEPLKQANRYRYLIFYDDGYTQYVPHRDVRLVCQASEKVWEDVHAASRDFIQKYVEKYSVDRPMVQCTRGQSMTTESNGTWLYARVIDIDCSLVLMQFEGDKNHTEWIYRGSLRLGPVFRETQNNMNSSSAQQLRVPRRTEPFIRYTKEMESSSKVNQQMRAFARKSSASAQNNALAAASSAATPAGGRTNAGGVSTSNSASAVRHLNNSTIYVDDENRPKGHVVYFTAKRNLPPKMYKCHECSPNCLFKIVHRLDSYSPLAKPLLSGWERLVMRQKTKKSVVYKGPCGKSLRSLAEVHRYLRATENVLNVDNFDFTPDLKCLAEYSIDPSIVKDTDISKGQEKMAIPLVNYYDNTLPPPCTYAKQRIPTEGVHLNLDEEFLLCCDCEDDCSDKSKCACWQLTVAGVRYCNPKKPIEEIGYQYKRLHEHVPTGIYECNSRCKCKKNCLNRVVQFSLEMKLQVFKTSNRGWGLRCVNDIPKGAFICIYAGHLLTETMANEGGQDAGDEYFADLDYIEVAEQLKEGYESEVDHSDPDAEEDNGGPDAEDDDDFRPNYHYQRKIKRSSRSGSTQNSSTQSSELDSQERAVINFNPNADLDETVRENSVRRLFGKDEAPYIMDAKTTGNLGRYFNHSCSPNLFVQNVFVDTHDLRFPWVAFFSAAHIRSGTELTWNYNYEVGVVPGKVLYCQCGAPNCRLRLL
UniProt A0A0B4LF38: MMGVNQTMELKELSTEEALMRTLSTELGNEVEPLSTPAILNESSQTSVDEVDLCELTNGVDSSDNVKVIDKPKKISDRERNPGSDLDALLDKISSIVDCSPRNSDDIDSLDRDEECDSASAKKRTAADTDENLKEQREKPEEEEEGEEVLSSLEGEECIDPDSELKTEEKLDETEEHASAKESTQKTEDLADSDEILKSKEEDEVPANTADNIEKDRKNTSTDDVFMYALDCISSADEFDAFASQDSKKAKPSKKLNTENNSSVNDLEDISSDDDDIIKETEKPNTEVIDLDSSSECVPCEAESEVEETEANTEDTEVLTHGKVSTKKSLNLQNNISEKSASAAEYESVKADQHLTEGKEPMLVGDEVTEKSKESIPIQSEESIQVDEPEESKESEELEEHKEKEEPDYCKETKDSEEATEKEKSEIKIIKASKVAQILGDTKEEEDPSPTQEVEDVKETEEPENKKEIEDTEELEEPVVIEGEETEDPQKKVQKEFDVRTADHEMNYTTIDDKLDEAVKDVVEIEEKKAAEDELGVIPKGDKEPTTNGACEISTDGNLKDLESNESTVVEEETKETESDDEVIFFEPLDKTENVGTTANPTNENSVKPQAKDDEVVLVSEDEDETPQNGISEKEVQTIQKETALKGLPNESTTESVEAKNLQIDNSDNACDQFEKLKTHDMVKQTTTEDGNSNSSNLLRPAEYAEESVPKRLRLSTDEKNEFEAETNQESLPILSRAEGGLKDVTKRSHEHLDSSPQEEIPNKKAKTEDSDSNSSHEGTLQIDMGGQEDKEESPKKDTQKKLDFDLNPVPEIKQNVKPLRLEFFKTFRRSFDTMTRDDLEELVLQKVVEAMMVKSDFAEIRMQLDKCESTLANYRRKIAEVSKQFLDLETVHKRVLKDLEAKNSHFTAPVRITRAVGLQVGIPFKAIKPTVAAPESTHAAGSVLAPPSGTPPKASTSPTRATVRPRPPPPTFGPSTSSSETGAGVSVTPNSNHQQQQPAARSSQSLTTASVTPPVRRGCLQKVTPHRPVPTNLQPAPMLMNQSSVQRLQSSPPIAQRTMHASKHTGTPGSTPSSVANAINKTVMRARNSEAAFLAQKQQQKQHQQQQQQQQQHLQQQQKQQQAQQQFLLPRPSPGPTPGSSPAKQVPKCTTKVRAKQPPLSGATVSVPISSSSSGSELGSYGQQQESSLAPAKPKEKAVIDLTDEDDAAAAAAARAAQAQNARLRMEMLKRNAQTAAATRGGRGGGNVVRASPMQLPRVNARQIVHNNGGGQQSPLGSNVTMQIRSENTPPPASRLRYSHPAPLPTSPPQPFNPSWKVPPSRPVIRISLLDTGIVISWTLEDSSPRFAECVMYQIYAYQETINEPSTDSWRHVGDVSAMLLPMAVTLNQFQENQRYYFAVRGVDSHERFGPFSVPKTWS

Experiment [2] concerns the target endogenously flag-HA tagged catalytic dead dSetDB1 (Y1236N) (D. melanogaster) (UniProt Q32KD2). The description is as above.

These are yes or no findings as the source states them, for the method shown. Binding seen in cells or lysates may run through a third protein. A yes stands for co-enrichment or nearness to the bait. Other partners may have been found.

Take Windei (Wde) (from UniProt A0A0B4LF38): the binding result in experiment [1] and in experiment [2] was “binds” each time.

The values are drawn from article PMC11217351.
